Patent publication US5548062A (Asahi Glass Company Ltd., priority 1990, dated 1996)
HELM strings list residues between dots; [ac] is acetyl, [am] amide, other brackets name non-standard units. One purity is given for all peptides; the source may state it once.

Assay: peptide synthesis
Settings: whole synthesis, reversed-phase HPLC (μBondasphere C18 column, Waters)

Substance: PEPTIDE1{A.E.D.G.D.A.K.T.D.Q.A.E.K.A.E.G.A.G.D.A.K}$$$$V2.0
- final HPLC purity: at least 99%
